Experimental data published in PubChem BioAssay AID504444 (National Center for Advancing Translational Sciences (NCATS), 2011).
Hit rate of the full screen: of about 360,000 compounds, about 7,500 (2.1%) were called active. The inconclusive results got no clear call from the source; some entries with a clear call stand among them for comparison. Calls follow the shape of the dose curve; as a rule, active = well fitted inhibition curve with a large enough effect; inconclusive = small, poorly fitted or top-dose-only effect, or effect the other way; inactive = flat fitted curve, though single readings scatter. Where the call is inconclusive, the potency comes from a doubtful curve fit.

Experiment: Nrf2 qHTS screen for inhibitors; also: nearly all actives have a fitted effect of over 60% in size
Conditions: A549 ARE-Fluc reporter, luciferase luminescence, 18-24 h; series mostly up to 46 µM
In short: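 A549 ARE_Fluc cells (5000/well, 5% FBS OPTI-MEM) pre-incubated 2 h, then treated with compounds 18-24 h at 37C/5% CO2 in concentration-response. CellTiter-Fluor viability read first; BugLite luciferase luminescence after 15 min at room temperature gives Nrf2 activity.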
Potency is read from the fitted curve at half-maximal effect.

Q: For O=C(Nc1cccc(S(=O)(=O)N2CCCCCC2)c1)C1CC(=O)N(c2ccc3c(c2)OCCO3)C1 (stereo unspecified), which Potency is on record?
A: inconclusive: 23.1 µM [falling, single point]

Q: For CN(C)c1ccc(C(C[N+](=O)[O-])c2c(N)n(C)c(=O)n(C)c2=O)c(F)c1C#N (stereo unspecified), which Potency is on record?
A: inconclusive: 8.2 µM [falling, partial curve]

Q: With CCOP(=O)(OCC)c1nc(-c2cccc3ccccc23)oc1NCCc1ccc(OC)cc1 as the molecule, how does the Potency read?
A: inactive

Q: With CCC(=O)Nc1cccc(NC(=O)c2cc3ccccc3o2)c1 as the molecule, how does the Potency read?
A: inconclusive: 0.731 µM [activator, full curve, poor fit]

Q: For O=C(COC(=O)c1ccccc1-n1cnnn1)c1ccc(F)c(F)c1, which Potency is on record?
A: inconclusive: 11.6 µM [activator, partial curve]

Q: Which Potency does the source give for CC(=O)c1cccc(NS(=O)(=O)c2ccc(-c3cc(C)no3)s2)c1 here?
A: inconclusive: 5.8 µM [falling, single point]

Q: With O=C(CSc1nc2ccc(Cl)cc2[nH]1)NCCc1ccccc1 as the molecule, how does the Potency read?
A: inconclusive: 25.9 µM [falling, partial curve, poor fit]

Q: For O=C(NNC(=O)c1ccc2ccccc2c1)c1cccc(Cl)c1, which Potency is on record?
A: inconclusive: 18.4 µM [activator, partial curve, poor fit]

Q: With c1ccc(CCc2cc3ccccc3[nH]2)cc1 as the molecule, how does the Potency read?
A: inconclusive: 18.4 µM [activator, single point]

Q: Which Potency does the source give for CC(C)c1ccc(C(=O)Nc2cccnc2)cc1 here?
A: inconclusive: 0.082 µM [activator, full curve, poor fit]

Q: Which Potency does the source give for CC[n+]1c(/C=C2\C=C(C)CC(C)C2)sc2ccccc21 (stereo unspecified) here?
A: inconclusive: 29.1 µM [falling, single point]

Q: With O=C(c1ccc(CNS(=O)(=O)c2cccc(Cl)c2)cc1)N1CCCCC1 as the molecule, how does the Potency read?
A: inconclusive: 20.6 µM [falling, single point]

Q: Which Potency does the source give for CNc1ccc(/C=C/C(=O)c2cccc3ccccc23)cc1[N+](=O)[O-] here?
A: inconclusive: 29.1 µM [falling, single point]

Q: With Cc1ccc(NS(=O)(=O)c2c(C)nc3sccn3c2=O)c(Cl)c1 as the molecule, how does the Potency read?
A: inconclusive: 2.91 µM [activator, partial curve, poor fit]

Q: For CC1CCCCC1NC(=O)c1ccc(S(=O)(=O)NCC2CCCO2)cc1 (stereo unspecified), which Potency is on record?
A: inconclusive: 9.2 µM [falling, partial curve]

Q: For N#Cc1c(N2CCN(c3ccc([N+](=O)[O-])cc3)CC2)[n+](=O)c2ccc(Cl)cc2n1[O-], which Potency is on record?
A: inconclusive: 18.4 µM [falling, single point]

Q: With COc1ccccc1NS(=O)(=O)c1ccc(C)c(C(=O)NC2CCN(Cc3ccccc3)CC2)c1 as the molecule, how does the Potency read?
A: inconclusive: 9.2 µM [falling, partial curve]

Q: With CCOc1ccc(C(=O)NCCNC(=O)c2ccc(OCC)cc2)cc1 as the molecule, how does the Potency read?
A: inconclusive: 1.46 µM [falling, partial curve]

Q: With Cc1sc2ncn(CC(=O)NCC(=O)N3CCN(c4ccc(F)cc4)CC3)c(=O)c2c1C as the molecule, how does the Potency read?
A: active: 8.2 µM

Q: Which Potency does the source give for Cc1cc(NC(=O)CSc2nc3c(c(=O)n2-c2ccc(Br)cc2)SCC3)no1 here?
A: inconclusive: 29.1 µM [falling, single point]

Q: With Cc1cccc2nc(=S)n(C(=O)c3ccco3)n12 as the molecule, how does the Potency read?
A: inconclusive: 2.91 µM [activator, full curve]

Q: With COc1ccc(NC(=O)C2=CC(c3ccc(OC)cc3)=NS(=O)(=O)N2C)cc1 as the molecule, how does the Potency read?
A: inconclusive: 29.1 µM [falling, single point]

Q: Which Potency does the source give for COc1cc(Cl)c(NC(=O)CC(C)S(=O)(=O)c2cc3c(cc2C)NC(=O)CO3)c(OC)c1 (stereo unspecified) here?
A: inconclusive: 5.8 µM [activator, partial curve, poor fit]

Q: For Cn1c(CNC(=O)c2ccc(Cl)c(Cl)c2)nnc1SCC(=O)Nc1sc2c(c1C#N)CCCC2, which Potency is on record?
A: inconclusive: 0.651 µM [falling, partial curve, poor fit]

Q: For Cc1ccc(NC(=O)CSc2nncn3c2cc2sccc23)cc1F, which Potency is on record?
A: inconclusive: 32.6 µM [falling, single point]

Q: For CCC(=O)Nc1cccc(NC(=O)c2ccc3c(c2)OCCO3)c1, which Potency is on record?
A: inconclusive: 1.84 µM [activator, full curve]

Q: Which Potency does the source give for O=C(Nc1ccc(Cl)c(Cl)c1)OCCNC(=O)c1ccncc1 here?
A: inconclusive: 29.1 µM [falling, single point]

Q: For CC(=O)Nc1ccc(NC(=O)CSc2nnc(NC(=O)c3ccc(Br)o3)s2)cc1, which Potency is on record?
A: inconclusive: 8.2 µM [falling, partial curve, poor fit]

Q: For O=S(=O)(NCC1CCN(c2ccc(S(=O)(=O)N3CCOCC3)cc2)CC1)c1ccc(F)cc1, which Potency is on record?
A: active: 20.6 µM

Q: Which Potency does the source give for Cc1ccc(OCC(=O)N2CCC(Cc3ccccc3)CC2)c([N+](=O)[O-])n1 here?
A: inactive

Q: For O=C(Nc1ccc(Cl)c(Cl)c1)N(Cc1c[nH]c2ccccc12)C1CCCCC1, which Potency is on record?
A: inconclusive: 4.61 µM [activator, full curve]

Q: Which Potency does the source give for CCOc1ccc(C(=O)Nc2ccc(NC(=O)c3ccccc3)cc2)cc1Br here?
A: inactive

Q: Which Potency does the source give for COC(=O)c1ccc([C@H]2Nc3ccc(S(=O)(=O)Nc4ccc(F)cc4)cc3[C@H]3C=CC[C@H]32)cc1 here?
A: inactive

Q: For O=C(C1CC1)N1CCc2cc(S(=O)(=O)NCCC3=CCCCC3)ccc21, which Potency is on record?
A: inconclusive: 11.6 µM [falling, partial curve, poor fit]

Q: For O=C1CN(C(=O)N[C@@H](Cc2ccccc2)C(=O)N[C@H](C(=O)O)c2ccccc2)c2ccccc2N1, which Potency is on record?
A: inactive

Q: For COc1ccc(-c2ccc(NS(=O)(=O)c3cc([N+](=O)[O-])c(C)c([N+](=O)[O-])c3)cc2)nn1, which Potency is on record?
A: inconclusive: 0.291 µM [falling, full curve, poor fit]

Q: With Cc1cc(C(=O)CCl)c(C)n1CCc1ccc(Cl)cc1 as the molecule, how does the Potency read?
A: inactive

Q: With CC(C)c1nc2oc3c(N4CCN(C)CC4)ncnc3c2c2c1CCC2 as the molecule, how does the Potency read?
A: inconclusive: 29.1 µM [activator, single point]

Q: With CN(C(=O)COC(=O)c1ccc2c(=O)n3c(nc2c1)CCC3)C1CCS(=O)(=O)C1 (stereo unspecified) as the molecule, how does the Potency read?
A: inconclusive: 3.66 µM [activator, single point]

Q: For O=C(/C=C/Nc1ccc(Br)cn1)c1cccc(OC(F)F)c1, which Potency is on record?
A: inconclusive: 20.6 µM [activator, partial curve]

Q: Which Potency does the source give for COc1ccccc1-c1coc2cc(O)cc(O)c2c1=O here?
A: inconclusive: 8.2 µM [activator, partial curve]

Q: Which Potency does the source give for O=C(Cc1ccccc1)N1CCN(S(=O)(=O)c2ccc([N+](=O)[O-])cc2)CC1 here?
A: inconclusive: 0.164 µM [falling, full curve, poor fit]

Q: With Cc1cccnc1NC(=O)c1ccc(NS(=O)(=O)/C=C/c2ccccc2)cc1 as the molecule, how does the Potency read?
A: inactive

Q: For Cc1ccc(NC(=O)CCS(=O)(=O)c2ccc3nc(C)sc3c2)c(C)c1, which Potency is on record?
A: inconclusive: 6.51 µM [activator, single point]

Q: For Nc1nc(NCCCN2CCOCC2)nc(Nc2ccc(F)cc2)c1[N+](=O)[O-], which Potency is on record?
A: inconclusive: 0.092 µM [activator, full curve, poor fit]

Q: With Cc1ccc(C(=O)Nc2nnc(S(=O)(=O)Nc3ccccc3C)s2)cc1C as the molecule, how does the Potency read?
A: inconclusive: 29.1 µM [falling, single point]

Q: With O=C(NCC(=O)N1CCN(Cc2ccccc2)CC1)c1cc(Cl)cc([N+](=O)[O-])c1 as the molecule, how does the Potency read?
A: inconclusive: 29.1 µM [falling, single point]

Q: For O=C(/C=C/c1ccc2c(c1)OCCO2)c1ccc(O)cc1, which Potency is on record?
A: inconclusive: 18.4 µM [falling, single point]

Q: Which Potency does the source give for CCOC(=O)c1c(C)oc2nc(C)nc(N(C)Cc3ccccc3)c12 here?
A: active: 13 µM

Q: Which Potency does the source give for COc1ccc(C2NC(c3ccc4c(c3)OCO4)=CC(c3ccccc3O)N2)cc1OC (stereo unspecified) here?
A: inactive

Q: With CC(C)COc1cccc(C(=O)Nc2ccc(CN3CCOCC3)cc2)c1 as the molecule, how does the Potency read?
A: inconclusive: 25.9 µM [falling, partial curve, poor fit]

Q: For Cc1ccc(S(=O)(=O)N2CCCC2C(=O)Nc2ccc(Br)cc2)cc1 (stereo unspecified), which Potency is on record?
A: inconclusive: 29.1 µM [falling, single point]

Q: Which Potency does the source give for CC(=O)Nc1ccccc1NS(=O)(=O)c1cccc([N+](=O)[O-])c1 here?
A: inconclusive: 20.6 µM [falling, partial curve, poor fit]

Q: With O=C(C1CCCN(S(=O)(=O)c2cccc3nonc23)C1)N1CCN(c2cccc(C(F)(F)F)c2)CC1 (stereo unspecified) as the molecule, how does the Potency read?
A: inconclusive: 18.4 µM [falling, single point]

Q: For Cc1ccc(S(=O)(=O)N(C)C)cc1NC(=S)NC12CC3CC(CC(C3)C1)C2, which Potency is on record?
A: inconclusive: 29.1 µM [falling, single point]

Q: For CN(CC(=O)Nc1ccc(Cl)c(C(F)(F)F)c1)C(=O)c1cccs1, which Potency is on record?
A: inconclusive: 20.6 µM [falling, partial curve, poor fit]

Q: For CCOC(=O)CCCSc1nnc(CCCCCN2C(=O)c3cccc4cccc(c34)C2=O)o1, which Potency is on record?
A: inconclusive: 29.1 µM [falling, partial curve, poor fit]

Q: With Cc1ccc(-c2csc(C(C#N)=C(O)CN3CCN(C(=O)c4ccco4)CC3)n2)cc1 as the molecule, how does the Potency read?
A: inconclusive: 32.6 µM [falling, single point]

Q: Which Potency does the source give for Cc1ccc(/C=N/NC(=O)c2nnn(-c3nonc3N)c2-c2ccc3c(c2)OCO3)s1 here?
A: inconclusive: 20.6 µM [falling, partial curve, poor fit]

Q: For Cc1ccc2[nH]c(=O)c3cc(C(=O)NCc4cccc(Cl)c4)sc3c2c1, which Potency is on record?
A: inconclusive: 3.66 µM [falling, partial curve, poor fit]

Q: Which Potency does the source give for CC(C)c1ccc(/C=C/C2=NNC(=O)CC2)cc1 here?
A: inconclusive: 6.51 µM [falling, single point]
